From patent US11505530B2, “1,8-naphthalimide derivative, preparation method therefor and use thereof” (SOOCHOW UNIVERSITY, priority 2018, dated 2022)

What was measured:
[1] = Fluorescence spectrum response of BNGT to different metal ions (selectivity and sensitivity); settings: acetonitrile/water 1/99
[2] = Fluorescence titration with Cu^2+: linear range and detection limit; settings: acetonitrile/water 1/99; titration and blank experiments
[3] = Analysis of Cu^2+ in spiked pond water and tap water samples
[4] = BNGT 10 μm, metal ions 100 μm, excitation 345 nm, 25° C.

CCCCN1C(=O)c2cccc3c(NN=CC=NC(CO)(CO)CO)ccc(c23)C1=O [BNGT]
enhancement of fluorescence intensity by Cu^2+ at 392 nm [1, 4]: 9.2 times | enhancement of fluorescence intensity by Cu^2+ at 754 nm [1, 4]: 9.4 times | fluorescence response to other individual metal ions ([1]; Fe^3+, K^+, Na^+, Mg^2+, Ni^2+, Ag^+, Cr^3+, Cd^2+, Co^2+, Zn^2+, Mn^2+, Fe^2+, Ca^2+, Hg^2+, Pb^2+): did not respond to other individual metals | detection limit for Cu^2+ at 392 nm [2]: 2.6368e-07 mol/L | detection limit for Cu^2+ at 754 nm [2]: 2.0156e-07 mol/L | Detected Cu^2+ ([3]; 392 nm, pond water, added Cu^2+ 15): 14.77 10^−6 mol/L | Detected Cu^2+ ([3]; 392 nm, pond water, added Cu^2+ 20): 20.69 10^−6 mol/L | Detected Cu^2+ ([3]; 392 nm, tap water, added Cu^2+ 15): 14.96 10^−6 mol/L | Detected Cu^2+ ([3]; 392 nm, tap water, added Cu^2+ 20): 20.31 10^−6 mol/L | Detected Cu^2+ ([3]; 754 nm, pond water, added Cu^2+ 15): 14.57 10^−6 mol/L | Detected Cu^2+ ([3]; 754 nm, pond water, added Cu^2+ 20): 20.13 10^−6 mol/L | Detected Cu^2+ ([3]; 754 nm, tap water, added Cu^2+ 15): 14.80 10^−6 mol/L | Detected Cu^2+ ([3]; 754 nm, tap water, added Cu^2+ 20): 20.40 10^−6 mol/L
